# Experimental data published in the supplement of paper PMC3334620.
# Over roughly 33,000 sequences, “E-score (-0.5 to 0.5)” has its median near -0.015; the highest 2% begin near 0.3. Some of the results follow.
# Target: T1, Abf1 (UniProt P14164)
# T1 sequence: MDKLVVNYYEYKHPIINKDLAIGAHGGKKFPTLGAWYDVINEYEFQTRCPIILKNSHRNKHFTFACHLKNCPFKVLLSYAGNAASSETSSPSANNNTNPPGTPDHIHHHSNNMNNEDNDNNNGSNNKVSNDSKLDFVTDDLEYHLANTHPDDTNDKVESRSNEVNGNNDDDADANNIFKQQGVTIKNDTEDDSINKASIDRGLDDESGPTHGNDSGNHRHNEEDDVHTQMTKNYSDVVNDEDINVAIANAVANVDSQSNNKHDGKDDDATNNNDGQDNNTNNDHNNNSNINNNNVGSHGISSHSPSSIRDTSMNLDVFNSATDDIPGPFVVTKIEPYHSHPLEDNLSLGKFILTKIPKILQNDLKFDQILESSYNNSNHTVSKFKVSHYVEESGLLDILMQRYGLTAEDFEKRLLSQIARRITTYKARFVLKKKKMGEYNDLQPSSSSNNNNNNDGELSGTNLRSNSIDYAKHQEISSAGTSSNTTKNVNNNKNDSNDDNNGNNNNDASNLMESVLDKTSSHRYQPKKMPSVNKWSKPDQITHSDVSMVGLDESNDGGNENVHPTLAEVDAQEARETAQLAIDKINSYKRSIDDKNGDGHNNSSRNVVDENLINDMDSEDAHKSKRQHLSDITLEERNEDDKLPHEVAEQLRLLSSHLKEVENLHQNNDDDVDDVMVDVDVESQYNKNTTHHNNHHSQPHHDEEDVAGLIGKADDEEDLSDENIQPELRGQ
# Assay: PBM E-score (8-mer binding enrichment) (E-score (-0.5 to 0.5)); higher = stronger / more preferred TF binding
# Details: protein concentration: 200 nM; construct: GST-full length
# Procedure: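 Universal 'all 10-mer' protein binding microarrays (Agilent AMADID 015681) probed with GST-tagged S. cerevisiae TFs (full-length or DBD) made by in vitro transcription/translation (PURExpress), about 100-200 nM. Bound TF was detected with fluorescent anti-GST. Each ungapped 8-mer (which stands for itself and its reverse complement) is scored by the PBM enrichment score (E-score), a modified Wilcoxon-Mann-Whitney statistic from -0.5 to +0.5, computed with the Universal PBM Analysis Suite. Scale: above 0.35 generally sequence-specific binding.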
row,Sequence,PBM E-score
1,AATTATGC,0.0539
2,GAGCAGTA,0.176
3,CCGCCCGG,-0.265
4,CATCTATA,-0.0136
5,CTCTGAAA,-0.0176
6,ATTAAGCC,0.0493
7,AGCGACCA,0.0713
8,CGGACGTA,0.0357
9,AATTAGGT,0.043
10,CCGCCGAC,-0.0124
11,ATCGAATC,0.0398
12,GCAAATGC,-0.112
13,ACTAGGAA,-0.109
14,CGTTAGTC,0.00116
15,ATCTCCCG,-0.0535
16,AAACGCGG,-0.106
17,ATGGCTAA,-0.0715
18,ATAGCTAA,-0.00918
19,CAGTTCTA,-0.0197
20,CTCTACAG,-0.12
21,GTTCACGA,0.3
22,AAGATTCT,-0.112
23,GGATGTAC,0.0514
24,CGTGCCAA,0.0589
25,TCACGCAA,0.246

row,Sequence,PBM E-score
1,CGTCACTC,0.173
2,AGGGGCTA,-0.284
3,AAATAAAT,0.241
4,CATGTGCG,-0.0711
5,GAGCTGTA,-0.171
6,CCCTGTTA,-0.0954
7,GGCGGCAC,-0.161
8,AGTGGTGG,-0.185
9,CTGGGTCA,0.00167
10,TATAGATA,0.0107
11,ATGGACTC,-0.134
12,ATTCAACG,0.173
13,ATTGTAAA,0.121
14,ACCTATAC,0.108
15,CCCTCATA,-0.252
16,ATACTTAG,-0.0263
17,GGCCTGCA,-0.337
18,AGTTTTCG,0.00304
19,GGGGCAAC,-0.111
20,AAGCCCCC,-0.352
21,GCATGGGC,-0.249
22,TACCACCA,-0.0711
23,ATTTCTGA,0.0752
24,CTAAACGC,-0.0858
25,GGGAGTTA,-0.187

row,Sequence,PBM E-score
1,CGGACCAA,0.108
2,CGGGTCTC,-0.21
3,AACCAGAT,0.0748
4,ACCGTAAC,-0.0719
5,AGACTAAC,-0.111
6,GTTTCTGA,-0.0568
7,TGCTCGAA,0.00967
8,CCCTAAAC,-0.266
9,ATAGAATG,0.12
10,CGCGAGCA,-0.163
11,AGGGGGCG,-0.33
12,CAACTGTG,0.0339
13,AGTCTACA,-0.172
14,CATGCCGA,0.0631
15,AGTTCAAC,-0.0212
16,ATACTCAA,0.0438
17,CATACGAC,0.333
18,CTCCAACA,-0.0924
19,CATTAGGC,0.0172
20,ACCGTTTA,0.184
21,AAGTTAAG,-0.244
22,ATTAGTGG,0.1
23,CTCTATAC,0.116
24,AGCGCTAA,0.0295
25,TCTAGAAA,-0.00368

row,Sequence,PBM E-score
1,TAATACGA,0.337
2,AGACCTAA,-0.206
3,CAATCCCC,0.0488
4,GATATGAC,0.204
5,GGACTCCC,-0.334
6,AAATACAG,-0.0657
7,TAACAAGA,-0.0715
8,AATAACCC,-0.0705
9,CGGACTCA,-0.0787
10,AATGTGGT,-0.0389
11,AGCGTGAG,0.04
12,ATGCAGTG,0.00936
13,AATTCGCT,0.143
14,ACGACCTA,0.183
15,AGGGCTTA,-0.232
16,ACCTTCCA,-0.173
17,ATGCCGGC,0.106
18,ACGCTAAC,-0.121
19,GCGACCGC,0.00813
20,CTAGATGA,0.0708
21,CAGGCACA,-0.196
22,AGAGGTGC,-0.245
23,GTAATAAC,0.124
24,GAGGTTTA,-0.0992
25,GTGCTGGA,-0.141

row,Sequence,PBM E-score
1,CCTGTGGA,-0.199
2,GCAAGATA,0.108
3,AAGGAAGC,-0.403
4,TAGAACCA,-7e-05
5,ACCCCGCG,-0.208
6,CCCCCAAC,-0.381
7,GTAGCAGA,0.0905
8,ATCGGACC,-0.107
9,GACGCCAC,-0.0658
10,CAATTTGC,-0.24
11,GCCCTTCC,-0.348
12,ATTTAGAG,-0.0393
13,AAGCGTTA,-0.241
14,AGTGAGTC,-0.0895
15,ACCTCAGT,-0.0717
16,ATGGTGGA,-0.127
17,AACTGTCT,-0.0987
18,CCGTTTAG,0.124
19,AGGGTCGA,-0.0783
20,AGCAGTGA,0.163
21,CCTCAAAG,0.0344
22,ATATGCAG,-0.0433
23,GCTGGTCA,-0.022
24,ACAATGAG,-0.0761
25,CCACGCTC,-0.119

row,Sequence,PBM E-score
1,ATCGACAC,-0.112
2,ACGGTGAC,0.226
3,CTTCACAA,-0.25
4,CACGGTGG,0.0869
5,ACCGGGGC,-0.161
6,GCGAAGTA,0.0895
7,CGAGAAAC,0.0254
8,AACCGCTT,-0.123
9,ATTCGCTG,0.0634
10,ATCGGGAG,-0.0901
11,GACCGCGC,-0.123
12,AAGCGGAC,-0.0153
13,CCGTCATA,0.37
14,CAATTAGC,-0.0409
15,ACACTTTA,-0.0188
16,CTGATAAG,0.0278
17,TACCATGA,0.00159
18,AGGGCCCG,-0.0617
19,ACCAATCA,-0.00623
20,GTCTTTCA,-0.0873
21,ACGTTTGC,0.0331
22,ACAGACAT,0.0626
23,CCCCCACA,-0.204
24,CCACGCCC,-0.17
25,ACTTGTCT,-0.0797

row,Sequence,PBM E-score
1,AGACGGGA,0.0337
2,ATTCTCCA,0.0932
3,ACTAACTC,-0.131
4,ACGTCGAT,0.133
5,CAACCTGG,-0.0413
6,CCCCGGAA,-0.22
7,ACATAAAA,0.147
8,AAATCAGA,0.195
9,CTGCCGAC,-0.121
10,GATAGTAC,0.129
11,AACAGTGG,-0.155
12,ATCTTTCG,0.0828
13,CCTACCCC,-0.374
14,GGTCATAA,0.0104
15,ACGTCAAG,0.154
16,AAGGCACA,-0.0687
17,TAGGGTAA,-0.00561
18,ACGTGAAA,0.261
19,ATCATGAT,0.416
20,CGCCATTC,-0.00985
21,ACCCACTA,0.0205
22,AGTGCCCC,-0.194

# Retrieved one by one from the list above, seven records:
row,Sequence,PBM E-score
14,GGTCATAA,0.0104
17,TAGGGTAA,-0.00561
4,ACGTCGAT,0.133
12,ATCTTTCG,0.0828
19,ATCATGAT,0.416
11,AACAGTGG,-0.155
9,CTGCCGAC,-0.121
